# Reference: paper doi:10.1101/2021.12.11.472226
# These are yes or no findings as the source states them, for the method shown. In cells and extracts the contact can be indirect. Some results given as binding are weak or reduced against the parent protein; the word gives no strength. Sequences can lack the tags named with a protein.
# T1: IQ67 DOMAIN 9 (IQD9) fused to GFP (Arabidopsis thaliana) (UniProt Q0WNP8)
# T1 sequence: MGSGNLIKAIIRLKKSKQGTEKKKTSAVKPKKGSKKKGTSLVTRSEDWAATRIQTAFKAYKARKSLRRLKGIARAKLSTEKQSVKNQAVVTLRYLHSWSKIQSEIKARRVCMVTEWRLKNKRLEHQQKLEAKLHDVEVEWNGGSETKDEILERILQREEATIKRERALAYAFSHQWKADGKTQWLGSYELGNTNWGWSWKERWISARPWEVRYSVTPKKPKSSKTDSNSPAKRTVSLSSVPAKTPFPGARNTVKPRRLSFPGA
# Target: T1, IQ67 DOMAIN 9 (IQD9) fused to GFP (Arabidopsis thaliana)
# Assay: co-IP
binder,measurement,value
"KINESIN LIGHT CHAIN-RELATED 1 (KLCR1) tagged with RFP (protein, UniProt O81629 1-609) MPAMPGLVSVKTPSDTPPLRVAVPDTQPLSNPPRTPMKKTPSSTPSRSKPSPNRSTGKKDSPTVSSSTAAVIDVDDPSLDNPDLGPFLLKLARDAIASGEGPNKALDYAIRATKSFERCCAAVAPPIPGGSDGGPVLDLAMSLHVLAAIYCSLGRFDEAVPPLERAIQVPDPTRGPDHSLAAFSGHMQLGDTLSMLGQIDRSIACYEEGLKIQIQTLGDTDPRVGETCRYLAEAYVQAMQFNKAEELCKKTLEIHRAHSEPASLEEAADRRLMAIICEAKGDYENALEHLVLASMAMIASGQESEVASIDVSIGNIYMSLCRFDEAVFSYQKALTVFKASKGETHPTVASVFVRLAELYHRTGKLRESKSYCENALRIYNKPVPGTTVEEIAGGLTEISAIYESVDEPEEALKLLQKSMKLLEDKPGQQSAIAGLEARMGVMYYTVGRYEDARNAFESAVTKLRAAGEKSAFFGVVLNQMGLACVQLFKIDEAGELFEEARGILEQERGPCDQDTLGVYSNLAATYDAMGRIEDAIEILEQVLKLREEKLGTANPDFEDEKKRLAELLKEAGRSRNYKAKSLQNLIDPNARPPKKESSAKKWPSLGFKF",binding,binds
